From PubChem BioAssay record AID504749 (NCATS, 2011).

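Malaria parasite (P. falciparum) lines kept in red blood cells; parasite DNA is measured by SYBR Green fluorescence after lysis, 72 h after compound addition. Each compound was titrated across a series from about 0.000037 to 29 µM. The number is the fitted AC50, the concentration giving a half-maximal change in signal; a lower value means higher potency, whether the curve shows a decrease or an increase. Calls follow the curve class and fit quality: every row here is inconclusive, covering signal-raising curves and weak, poorly fitted, partial or highest-dose-only inhibition curves.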

Values are in nM. Every entry below has the call inconclusive. Only part of the assay is shown, chiefly results filed as inconclusive. A potency from a partial, single-point or poor curve is only a rough figure.

Compound | setting | potency (nM) | curve as filed
O=C(O)c1cn(C2CC2)c2cc(N3CCNCC3)c(F)cc2c1=O | CP215 | 2558 | inhibitor, partial curve
O=C(O)c1cn(C2CC2)c2cc(N3CCNCC3)c(F)cc2c1=O | CP201 | 7208 | inhibitor, single point
O=C(O)c1cn(C2CC2)c2cc(N3CCNCC3)c(F)cc2c1=O | CP268 | 3220 | inhibitor, partial curve
O=C(O)c1cn(C2CC2)c2cc(N3CCNCC3)c(F)cc2c1=O | ATS95 | 3548 | inhibitor, single point
O=C(O)c1cn(C2CC2)c2cc(N3CCNCC3)c(F)cc2c1=O | CP250 | 10000 | inhibitor, single point
O=C(O)c1cn(C2CC2)c2cc(N3CCNCC3)c(F)cc2c1=O | AA1029 | 5012 | inhibitor, partial curve
O=C(O)c1cn(C2CC2)c2cc(N3CCNCC3)c(F)cc2c1=O | AS120 | 2818 | inhibitor, partial curve
O=C(O)c1cn(C2CC2)c2cc(N3CCNCC3)c(F)cc2c1=O | CP297 | 4548 | inhibitor, partial curve
O=C(O)c1cn(C2CC2)c2cc(N3CCNCC3)c(F)cc2c1=O | CP335 | 6424 | inhibitor, single point
O=C(O)c1cn(C2CC2)c2cc(N3CCNCC3)c(F)cc2c1=O | P94_40 | 2239 | inhibitor, partial curve
O=C(O)c1cn(C2CC2)c2cc(N3CCNCC3)c(F)cc2c1=O | CP329 | 4548 | inhibitor, partial curve
O=C(O)c1cn(C2CC2)c2cc(N3CCNCC3)c(F)cc2c1=O | CP237 | 6310 | inhibitor, single point
O=C(O)c1cn(C2CC2)c2cc(N3CCNCC3)c(F)cc2c1=O | CP325 | 2869 | inhibitor, partial curve
O=C(O)c1cn(C2CC2)c2cc(N3CCNCC3)c(F)cc2c1=O | CP262 | 5726 | inhibitor, single point
O=C(O)c1cn(C2CC2)c2cc(N3CCNCC3)c(F)cc2c1=O | P93_24 | 2818 | inhibitor, partial curve, poor fit
O=C(O)c1cn(C2CC2)c2cc(N3CCNCC3)c(F)cc2c1=O | TAB165 | 2512 | inhibitor, partial curve
O=C(O)c1cn(C2CC2)c2cc(N3CCNCC3)c(F)cc2c1=O | CP256 | 3548 | inhibitor, single point
O=C(O)c1cn(C2CC2)c2cc(N3CCNCC3)c(F)cc2c1=O | CP194 | 6424 | inhibitor, single point
O=C(O)c1cn(C2CC2)c2cc(N3CCNCC3)c(F)cc2c1=O | CP265 | 10000 | inhibitor, single point
O=C(O)c1cn(C2CC2)c2cc(N3CCNCC3)c(F)cc2c1=O | CP203 | 2558 | inhibitor, partial curve
O=C(O)c1cn(C2CC2)c2cc(N3CCNCC3)c(F)cc2c1=O | DIV30 | 5726 | inhibitor, single point
O=C(O)c1cn(C2CC2)c2cc(N3CCNCC3)c(F)cc2c1=O | CP266 | 4053 | inhibitor, single point
O=C(O)c1cn(C2CC2)c2cc(N3CCNCC3)c(F)cc2c1=O | CP252 | 3162 | inhibitor, partial curve
O=C(O)c1cn(C2CC2)c2cc(N3CCNCC3)c(F)cc2c1=O | CP260 | 2818 | inhibitor, partial curve
O=C(O)c1cn(C2CC2)c2cc(N3CCNCC3)c(F)cc2c1=O | PC26 | 2031 | inhibitor, partial curve, poor fit
O=C(O)c1cn(C2CC2)c2cc(N3CCNCC3)c(F)cc2c1=O | CP211 | 3220 | inhibitor, partial curve
O=C(O)c1cn(C2CC2)c2cc(N3CCNCC3)c(F)cc2c1=O | DIV14 | 6424 | inhibitor, partial curve, poor fit
O=C(O)c1cn(C2CC2)c2cc(N3CCNCC3)c(F)cc2c1=O | CP315 | 5103 | inhibitor, single point
O=C(O)c1cn(C2CC2)c2cc(N3CCNCC3)c(F)cc2c1=O | DFO2036 | 3162 | inhibitor, partial curve
O=C(O)c1cn(C2CC2)c2cc(N3CCNCC3)c(F)cc2c1=O | HB3 | 3548 | inhibitor, partial curve
O=C(O)c1cn(C2CC2)c2cc(N3CCNCC3)c(F)cc2c1=O | N140 | 3981 | inhibitor, single point
O=C(O)c1cn(C2CC2)c2cc(N3CCNCC3)c(F)cc2c1=O | CP192 | 5103 | inhibitor, partial curve, poor fit
O=C(O)c1cn(C2CC2)c2cc(N3CCNCC3)c(F)cc2c1=O | CP269 | 5103 | inhibitor, partial curve
O=C(O)c1cn(C2CC2)c2cc(N3CCNCC3)c(F)cc2c1=O | CP291 | 5726 | inhibitor, partial curve
COc1c(N2C[C@@H]3CCCN[C@H]3C2)c(F)cc2c(=O)c(C(=O)O)cn(C3CC3)c12 | 7G8 | 15848 | inhibitor, single point
COc1c(N2C[C@@H]3CCCN[C@H]3C2)c(F)cc2c(=O)c(C(=O)O)cn(C3CC3)c12 | TAB109 | 14125 | inhibitor, single point
COc1c(N2C[C@@H]3CCCN[C@H]3C2)c(F)cc2c(=O)c(C(=O)O)cn(C3CC3)c12 | CP305 | 15101 | inhibitor, partial curve, poor fit
COc1c(N2C[C@@H]3CCCN[C@H]3C2)c(F)cc2c(=O)c(C(=O)O)cn(C3CC3)c12 | GB4 | 13459 | inhibitor, partial curve, poor fit
COc1c(N2C[C@@H]3CCCN[C@H]3C2)c(F)cc2c(=O)c(C(=O)O)cn(C3CC3)c12 | CP268 | 21331 | inhibitor, single point
COc1c(N2C[C@@H]3CCCN[C@H]3C2)c(F)cc2c(=O)c(C(=O)O)cn(C3CC3)c12 | JCK | 17782 | inhibitor, single point
COc1c(N2C[C@@H]3CCCN[C@H]3C2)c(F)cc2c(=O)c(C(=O)O)cn(C3CC3)c12 | P93_24 | 17782 | inhibitor, single point
COc1c(N2C[C@@H]3CCCN[C@H]3C2)c(F)cc2c(=O)c(C(=O)O)cn(C3CC3)c12 | CP237 | 10000 | inhibitor, single point
CC[C@H](C)C(=O)O[C@H]1C[C@@H](C)C=C2C=C[C@H](C)[C@H](CC[C@@H]3C[C@@H](O)CC(=O)O3)[C@H]21 | DIV17 | 239.3 | inhibitor, full curve, poor fit
CC[C@H](C)C(=O)O[C@H]1C[C@@H](C)C=C2C=C[C@H](C)[C@H](CC[C@@H]3C[C@@H](O)CC(=O)O3)[C@H]21 | CP335 | 4256 | inhibitor, single point
CC[C@H](C)C(=O)O[C@H]1C[C@@H](C)C=C2C=C[C@H](C)[C@H](CC[C@@H]3C[C@@H](O)CC(=O)O3)[C@H]21 | W2 | 19011 | inhibitor, single point

The first 3 entries again:

{"compound": "O=C(O)c1cn(C2CC2)c2cc(N3CCNCC3)c(F)cc2c1=O", "setting": "CP215", "potency (nM)": "2558", "curve as filed": "inhibitor, partial curve"}
{"compound": "O=C(O)c1cn(C2CC2)c2cc(N3CCNCC3)c(F)cc2c1=O", "setting": "CP201", "potency (nM)": "7208", "curve as filed": "inhibitor, single point"}
{"compound": "O=C(O)c1cn(C2CC2)c2cc(N3CCNCC3)c(F)cc2c1=O", "setting": "CP268", "potency (nM)": "3220", "curve as filed": "inhibitor, partial curve"}